The assay addresses GRA8 T220A mutant (GST fusion, expressed in 293T cells) (Toxoplasma gondii) (UniProt S8F761). The assay is described as follows: pull-down; 293T cells 48 h after co-transfection of mammalian GST fusions (GST-GRA8 constructs with V5-ATP5A1; GST-ATP5A1 constructs with Flag-GRA8); GST pull down, IB with αV5 or αFlag.

The chains behind the UniProt entries cited, without tags or fusion partners. Residues count along the entry.
UniProt P25705, residues 44-553: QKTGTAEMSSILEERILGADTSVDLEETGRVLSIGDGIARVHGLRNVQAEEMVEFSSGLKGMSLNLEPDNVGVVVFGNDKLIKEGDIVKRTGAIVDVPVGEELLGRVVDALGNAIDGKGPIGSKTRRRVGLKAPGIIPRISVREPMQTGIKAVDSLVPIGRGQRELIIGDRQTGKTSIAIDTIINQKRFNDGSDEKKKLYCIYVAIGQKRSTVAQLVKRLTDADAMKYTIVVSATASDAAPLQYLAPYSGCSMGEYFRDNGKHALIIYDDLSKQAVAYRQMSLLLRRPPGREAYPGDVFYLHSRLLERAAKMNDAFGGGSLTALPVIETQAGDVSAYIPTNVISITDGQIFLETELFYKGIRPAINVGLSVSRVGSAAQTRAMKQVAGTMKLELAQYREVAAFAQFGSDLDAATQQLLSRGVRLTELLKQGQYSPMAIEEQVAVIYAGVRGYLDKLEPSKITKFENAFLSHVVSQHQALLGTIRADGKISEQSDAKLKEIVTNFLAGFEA

Results are given in words; binding and its absence hold for the method and conditions named. Binding seen in cells or lysates may run through a third protein. Binding calls can cover weak binding; strength is not graded here.

Among the data in PMC5898902 are binding values, retold here.

With “V5-ATP5A1 (full length), expressed in 293T cells (from UniProt P25705 44-553)”, the binding result was “binds”.
